Results are given in words; binding and its absence hold for the method and conditions named. Binding seen in cells or lysates may run through a third protein. Some results given as binding are weak or reduced against the parent protein; the word gives no strength.

By UniProt entry, the sequences of proteins in these tests, tags left out.
UniProt Q99594: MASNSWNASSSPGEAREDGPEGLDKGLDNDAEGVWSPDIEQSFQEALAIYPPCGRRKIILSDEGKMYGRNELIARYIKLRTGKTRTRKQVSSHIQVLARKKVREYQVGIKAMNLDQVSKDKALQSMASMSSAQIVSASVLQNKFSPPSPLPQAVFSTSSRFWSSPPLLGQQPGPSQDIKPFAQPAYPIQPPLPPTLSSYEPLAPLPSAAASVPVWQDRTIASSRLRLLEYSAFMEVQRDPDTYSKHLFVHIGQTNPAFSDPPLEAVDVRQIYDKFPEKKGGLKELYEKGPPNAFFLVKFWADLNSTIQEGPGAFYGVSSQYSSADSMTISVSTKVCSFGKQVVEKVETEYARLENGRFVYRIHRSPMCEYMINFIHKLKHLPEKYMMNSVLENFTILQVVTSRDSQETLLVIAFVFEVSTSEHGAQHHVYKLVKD
UniProt Q5UIP0: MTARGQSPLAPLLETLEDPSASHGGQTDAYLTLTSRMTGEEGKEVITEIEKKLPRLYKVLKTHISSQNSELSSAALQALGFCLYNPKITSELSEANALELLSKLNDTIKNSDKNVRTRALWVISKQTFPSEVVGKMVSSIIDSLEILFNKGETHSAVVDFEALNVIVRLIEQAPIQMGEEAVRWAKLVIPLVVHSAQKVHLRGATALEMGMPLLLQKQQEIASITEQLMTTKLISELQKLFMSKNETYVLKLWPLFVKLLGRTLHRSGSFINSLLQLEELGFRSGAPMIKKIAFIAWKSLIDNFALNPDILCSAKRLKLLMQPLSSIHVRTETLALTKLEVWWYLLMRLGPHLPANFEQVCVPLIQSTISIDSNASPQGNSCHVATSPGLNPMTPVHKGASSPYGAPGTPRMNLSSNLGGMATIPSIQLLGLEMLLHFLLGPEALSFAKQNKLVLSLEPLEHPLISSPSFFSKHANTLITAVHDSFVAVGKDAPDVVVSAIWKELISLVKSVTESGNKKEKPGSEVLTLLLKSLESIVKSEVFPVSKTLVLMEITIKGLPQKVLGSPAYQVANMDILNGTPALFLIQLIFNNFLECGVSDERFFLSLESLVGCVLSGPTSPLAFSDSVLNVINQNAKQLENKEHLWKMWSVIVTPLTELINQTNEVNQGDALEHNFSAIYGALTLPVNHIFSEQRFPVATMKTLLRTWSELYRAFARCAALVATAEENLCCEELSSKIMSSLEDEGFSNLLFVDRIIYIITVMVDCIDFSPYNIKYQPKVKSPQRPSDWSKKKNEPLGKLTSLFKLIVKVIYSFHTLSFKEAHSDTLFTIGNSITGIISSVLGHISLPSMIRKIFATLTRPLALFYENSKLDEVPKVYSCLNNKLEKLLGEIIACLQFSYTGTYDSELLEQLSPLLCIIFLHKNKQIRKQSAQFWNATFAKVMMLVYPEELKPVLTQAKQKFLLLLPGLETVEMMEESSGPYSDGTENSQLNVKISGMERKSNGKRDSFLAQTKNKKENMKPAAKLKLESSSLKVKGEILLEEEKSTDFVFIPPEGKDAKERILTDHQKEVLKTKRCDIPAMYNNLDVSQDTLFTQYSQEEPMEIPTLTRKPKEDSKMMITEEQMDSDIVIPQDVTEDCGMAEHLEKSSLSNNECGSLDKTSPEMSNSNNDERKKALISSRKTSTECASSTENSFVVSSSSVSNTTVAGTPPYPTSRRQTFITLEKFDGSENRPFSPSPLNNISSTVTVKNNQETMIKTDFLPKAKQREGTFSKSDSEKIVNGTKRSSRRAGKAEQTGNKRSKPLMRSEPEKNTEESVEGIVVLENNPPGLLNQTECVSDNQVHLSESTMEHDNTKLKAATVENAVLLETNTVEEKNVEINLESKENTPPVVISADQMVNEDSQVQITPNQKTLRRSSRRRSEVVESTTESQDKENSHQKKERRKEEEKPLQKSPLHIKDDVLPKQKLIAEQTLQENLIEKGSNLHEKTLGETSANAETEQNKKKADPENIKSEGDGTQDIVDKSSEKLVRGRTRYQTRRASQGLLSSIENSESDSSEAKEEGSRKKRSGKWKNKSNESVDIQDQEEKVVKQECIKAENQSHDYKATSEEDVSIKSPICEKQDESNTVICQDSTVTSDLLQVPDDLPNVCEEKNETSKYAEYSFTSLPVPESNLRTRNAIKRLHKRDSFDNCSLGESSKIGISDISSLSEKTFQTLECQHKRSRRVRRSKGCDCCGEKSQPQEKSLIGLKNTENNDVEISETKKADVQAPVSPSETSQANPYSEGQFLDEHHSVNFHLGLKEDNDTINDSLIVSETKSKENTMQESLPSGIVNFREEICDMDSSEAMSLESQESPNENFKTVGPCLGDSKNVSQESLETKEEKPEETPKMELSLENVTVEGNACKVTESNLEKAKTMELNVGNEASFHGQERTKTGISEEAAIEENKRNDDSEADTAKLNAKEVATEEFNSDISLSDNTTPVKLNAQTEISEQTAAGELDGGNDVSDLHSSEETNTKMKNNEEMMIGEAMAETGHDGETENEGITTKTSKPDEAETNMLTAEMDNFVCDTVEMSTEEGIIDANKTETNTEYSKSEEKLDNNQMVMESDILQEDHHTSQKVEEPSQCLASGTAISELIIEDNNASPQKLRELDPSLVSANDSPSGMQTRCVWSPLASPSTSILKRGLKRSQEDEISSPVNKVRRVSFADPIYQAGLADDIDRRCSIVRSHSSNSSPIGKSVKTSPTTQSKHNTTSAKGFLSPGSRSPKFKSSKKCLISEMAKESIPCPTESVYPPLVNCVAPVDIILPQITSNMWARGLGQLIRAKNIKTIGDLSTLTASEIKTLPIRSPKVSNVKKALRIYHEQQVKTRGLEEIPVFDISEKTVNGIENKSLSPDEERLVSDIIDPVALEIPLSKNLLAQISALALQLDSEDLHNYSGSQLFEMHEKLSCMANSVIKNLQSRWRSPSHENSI
UniProt P09874: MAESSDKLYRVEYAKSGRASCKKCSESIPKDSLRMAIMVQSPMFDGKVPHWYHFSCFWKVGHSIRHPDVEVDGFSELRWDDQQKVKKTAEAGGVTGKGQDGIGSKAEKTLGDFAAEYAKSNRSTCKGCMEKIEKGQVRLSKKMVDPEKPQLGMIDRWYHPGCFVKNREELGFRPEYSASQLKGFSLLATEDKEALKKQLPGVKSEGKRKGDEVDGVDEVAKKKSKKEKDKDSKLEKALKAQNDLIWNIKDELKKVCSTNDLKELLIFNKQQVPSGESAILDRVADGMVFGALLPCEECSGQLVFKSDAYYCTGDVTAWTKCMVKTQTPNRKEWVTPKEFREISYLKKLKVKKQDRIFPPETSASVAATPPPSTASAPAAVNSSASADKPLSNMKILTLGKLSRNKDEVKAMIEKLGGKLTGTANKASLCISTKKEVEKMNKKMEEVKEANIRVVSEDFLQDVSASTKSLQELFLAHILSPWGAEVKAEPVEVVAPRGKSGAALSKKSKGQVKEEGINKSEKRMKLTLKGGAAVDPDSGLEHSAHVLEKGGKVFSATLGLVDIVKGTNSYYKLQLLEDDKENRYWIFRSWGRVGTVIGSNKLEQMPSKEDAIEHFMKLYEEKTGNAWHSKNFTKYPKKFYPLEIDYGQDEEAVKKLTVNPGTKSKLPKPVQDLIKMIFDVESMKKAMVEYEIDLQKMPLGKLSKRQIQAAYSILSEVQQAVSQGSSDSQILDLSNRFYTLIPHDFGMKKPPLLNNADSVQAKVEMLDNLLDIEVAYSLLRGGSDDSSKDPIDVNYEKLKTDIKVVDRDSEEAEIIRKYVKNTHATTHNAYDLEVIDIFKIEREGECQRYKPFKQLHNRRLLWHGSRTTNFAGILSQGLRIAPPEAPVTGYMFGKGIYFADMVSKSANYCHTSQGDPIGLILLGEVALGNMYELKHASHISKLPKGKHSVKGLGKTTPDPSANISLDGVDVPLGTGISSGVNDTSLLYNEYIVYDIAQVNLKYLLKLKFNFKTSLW
UniProt P13010: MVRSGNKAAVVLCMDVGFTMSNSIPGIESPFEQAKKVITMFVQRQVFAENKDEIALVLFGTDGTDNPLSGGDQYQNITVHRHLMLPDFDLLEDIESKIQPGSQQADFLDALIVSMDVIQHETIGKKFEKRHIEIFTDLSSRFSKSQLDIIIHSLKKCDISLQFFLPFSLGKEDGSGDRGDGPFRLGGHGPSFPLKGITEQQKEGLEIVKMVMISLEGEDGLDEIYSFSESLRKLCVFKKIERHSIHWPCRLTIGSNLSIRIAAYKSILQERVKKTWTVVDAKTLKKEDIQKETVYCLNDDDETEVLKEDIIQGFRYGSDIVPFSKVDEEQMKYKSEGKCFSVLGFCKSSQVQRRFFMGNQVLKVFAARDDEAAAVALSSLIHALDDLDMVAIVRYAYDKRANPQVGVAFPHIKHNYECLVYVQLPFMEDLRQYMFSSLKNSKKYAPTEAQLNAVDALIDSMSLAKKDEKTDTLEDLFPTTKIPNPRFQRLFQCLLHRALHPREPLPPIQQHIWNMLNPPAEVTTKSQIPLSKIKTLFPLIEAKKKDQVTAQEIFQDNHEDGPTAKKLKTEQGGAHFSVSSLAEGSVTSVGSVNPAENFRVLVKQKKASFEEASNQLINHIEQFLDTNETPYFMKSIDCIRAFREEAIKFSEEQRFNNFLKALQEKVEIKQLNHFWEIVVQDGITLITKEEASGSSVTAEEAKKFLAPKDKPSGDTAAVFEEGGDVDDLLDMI
UniProt P12956: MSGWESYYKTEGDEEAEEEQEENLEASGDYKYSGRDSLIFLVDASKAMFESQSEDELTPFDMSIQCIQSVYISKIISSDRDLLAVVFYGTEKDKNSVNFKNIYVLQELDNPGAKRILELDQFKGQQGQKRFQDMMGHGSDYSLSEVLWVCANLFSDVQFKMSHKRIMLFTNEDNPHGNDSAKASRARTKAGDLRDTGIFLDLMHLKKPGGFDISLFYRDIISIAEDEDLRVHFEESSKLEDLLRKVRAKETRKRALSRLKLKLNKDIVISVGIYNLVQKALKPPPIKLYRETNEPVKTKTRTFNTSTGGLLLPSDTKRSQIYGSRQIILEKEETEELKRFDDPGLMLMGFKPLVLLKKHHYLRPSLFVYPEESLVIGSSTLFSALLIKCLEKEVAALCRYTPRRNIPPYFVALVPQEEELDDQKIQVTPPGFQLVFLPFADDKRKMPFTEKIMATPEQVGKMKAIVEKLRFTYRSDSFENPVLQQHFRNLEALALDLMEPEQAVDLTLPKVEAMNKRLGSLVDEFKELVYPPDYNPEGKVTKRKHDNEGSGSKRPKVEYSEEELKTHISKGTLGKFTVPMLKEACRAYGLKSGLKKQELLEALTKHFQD

This is an account of results in paper PMC9947421.

The assay concerns the target WT TEAD3-Myc/Flag (human) (UniProt Q99594). In words: co-IP; anti-Myc IP of MYC-tagged WT or NLS mutant TEAD3 from cell lysates, Western blot of endogenous partners; WT TEAD3 also after 20 μg/ml bleomycin for the indicated time points; lysis buffer with universal nuclease. (In general: In western blotting, separated proteins are transferred to a membrane and probed.)
For the substance “Rap1-interacting factor 1 (RIF1) (from UniProt Q5UIP0 1-2472)”, the binding entry was “binds”. Under “poly(ADP-ribose) polymerase 1 (PARP1) (from UniProt P09874 1-1014)” stands “binds”; under “X-ray repair cross-complementing protein 5 (XRCC5) (from UniProt P13010 1-732)”, “binds”; under “X-ray repair cross-complementing protein 6 (XRCC6) (from UniProt P12956 1-609)”, “binds”.
